From article PMC9643514
No constants are given. Whether binding was seen depends on the method and setting. In cells and extracts the contact can be indirect. Binding can be weak; no strength is given. Where a sequence is shown, tags or fusion partners need not be part of it.

Assays:
[1] = target: Flag-tagged BRCA1 deletion mutant ΔBRCT (UniProt P38398); test: co-IP; Flag-tagged BRCA1 (wild type, ΔRING, ΔBRCT) co-transfected with HA-tagged IARS1 in HEK293T, anti-Flag immunoprecipitation, immunoblot with anti-HA
[2] = target: Flag-tagged BRCA1 deletion mutant ΔRING (UniProt P38398); test: as above

binding [1]: binds
binding [2]: binds
B1: HA-tagged IARS1 (enzyme, UniProt P41252 1-1262)
chain: MLQQVPENINFPAEEEKILEFWTEFNCFQECLKQSKHKPKFTFYDGPPFATGLPHYGHILAGTIKDIVTRYAHQSGFHVDRRFGWDCHGLPVEYEIDKTLGIRGPEDVAKMGITEYNNQCRAIVMRYSAEWKSTVSRLGRWIDFDNDYKTLYPQFMESVWWVFKQLYDKGLVYRGVKVMPFSTACNTPLSNFESHQNYKDVQDPSVFVTFPLEEDETVSLVAWTTTPWTLPSNLAVCVNPEMQYVKIKDVARGRLLILMEARLSALYKLESDYEILERFPGAYLKGKKYRPLFDYFLKCKENGAFTVLVDNYVKEEEGTGVVHQAPYFGAEDYRVCMDFNIIRKDSLPVCPVDASGCFTTEVTDFAGQYVKDADKSIIRTLKEQGRLLVATTFTHSYPFCWRSDTPLIYKAVPSWFVRVENMVDQLLRNNDLCYWVPELVREKRFGNWLKDARDWTISRNRYWGTPIPLWVSDDFEEVVCIGSVAELEELSGAKISDLHRESVDHLTIPSRCGKGSLHRISEVFDCWFESGSMPYAQVHYPFENKREFEDAFPADFIAEGIDQTRGWFYTLLVLATALFGQPPFKNVIVNGLVLASDGQKMSKRKKNYPDPVSIIQKYGADALRLYLINSPVVRAENLRFKEEGVRDVLKDVLLPWYNAYRFLIQNVLRLQKEEEIEFLYNENTVRESPNITDRWILSFMQSLIGFFETEMAAYRLYTVVPRLVKFVDILTNWYVRMNRRRLKGENGMEDCVMALETLFSVLLSLCRLMAPYTPFLTELMYQNLKVLIDPVSVQDKDTLSIHYLMLPRVREELIDKKTESAVSQMQSVIELGRVIRDRKTIPIKYPLKEIVVIHQDPEALKDIKSLEKYIIEELNVRKVTLSTDKNKYGIRLRAEPDHMVLGKRLKGAFKAVMTSIKQLSSEELEQFQKTGTIVVEGHELHDEDIRLMYTFDQATGGTAQFEAHSDAQALVLLDVTPDQSMVDEGMAREVINRIQKLRKKCNLVPTDEITVYYKAKSEGTYLNSVIESHTEFIFTTIKAPLKPYPVSPSDKVLIQEKTQLKGSELEITLTRGSSLPGPACAYVNLNICANGSEQGGVLLLENPKGDNRLDLLKLKSVVTSIFGVKNTELAVFHDETEIQNQTDLLSLSGKTLCVTAGSAPSLINSSSTLLCQYINLQLLNAKPQECLMGTVGTLLLENPLGQNGLTHQGLLYEAAKVFGLRSRKLKLFLNETQTQEITEDIPVKTLNMKTVYVSVLPTTADF
